The text below walks through data of PubChem BioAssay AID1458 (National Center for Advancing Translational Sciences (NCATS), 2008).

About 5,900 (2.8%) of roughly 210,000 compounds were called active. Inconclusive results (about 5%) are left out. Calls come from the whole dose curve; as a rule, active = well fitted activation curve with a large enough effect; inconclusive = small, poorly fitted or top-dose-only effect; inactive = no such curve, though single readings can be large or run the other way. Only a part is listed here, and it is no random draw. Entries without a call were filed so in the source.
Potency is the fitted concentration of half-maximal effect.

A short description of this assay: qHTS Assay for Enhancers of SMN2 Splice Variant Expression. For activity change, positive = activation: % of control where 0% means no effect. Note: nearly all actives have a fitted effect of over 55% in size. As to conditions: HEK293 SMN2-luciferase splicing reporter, luminescence, 30-36 h; activity change, positive = activation: at 46.1 µM (top of the series) unless noted. The text has this:
NIH Chemical Genomics Center [NCGC] NIH Molecular Libraries Probe Production centers Network [MLPCN] MLPCN Grant: R03 MH084179-01 Assay Submitter (PI): Elliot Androphy NCGC Assay Overview: Spinal muscular atrophy (SMA) is caused by insufficient levels of the survival motor neuron protein SMN. The SMN locus on chromosome 5q13 contains two inverted copies of SMN called SMN1 and SMN2 which are 99% identical at the amino acid level. SMN1 is a fully functional protein and SMN2 skips exon 7 90% of the time. Skipping of exon 7 produces non-functional protein product. 10% of the SMN2 protein includes exon 7 and is fully functional. In the SMA disease state, mutations in the SMN1 locus are the cause of the disease state. Because only 10% of SMN2 is of the fully functional form, it is not sufficient to overcome the deficiency produced by the loss of the SMN1 product. A therapy that either increase the amount of SMN2 product made or to increase the inclusion of exon 7 has been proposed for the treatment of SMA. We have designed an assay to identify small molecules that can increase the amount of functional SMN2 product by appending a luciferase reporter gene after the native SMN2 gene, such that inclusion of exon 7 in the expressed product places the luciferase sequence in frame, thus generating functional luciferase enzyme.
NCGC Assay Protocol Summary: This screen utilizes a luciferase reporter gene assay, combining the promoter and splicing based cassettes in tandem with the major portion of the native SMN2 cDNA, and then transfected into HEK293 cells. Compounds that increase luciferase signal presumably enhance expression of the functional SMN2 splice variant. Passaging media contained DMEM w/ glutamax (+phenol red) 10% FCS, 1x pen/strep, 200 ug/ml hygro, 1x sodium pyruvate. Assay media contained DMEM w/ glutamax (-phenol red) 10% FCS, 1x pen strep, 1x pyruvate Sequence, Parameter, Value, Description (1) Cells, […], 2000 cells/well, 1536 TC treated White solid bottom plate (2) Time, 10-12 hours, 37C 5% CO2 (3) Compound, 23 nl, MLSMR Library (4) Control Compound, 23 nL, Sodium butyrate st 4.5mM (final) conc (5) Time, 30-36 hours, 37C 5% CO2 (6) Reagent, 3 ul, One Glo (TM) from Promega (7) Time, 5-15 minutes, Room temp (8) Detector, Viewlux: luminescent read, 60 second integration, high speed 2x binning Keywords: Spinal muscular atrophy, SMA, SMN2, high throughput screening, MLSMR, MLPCN, NIH Roadmap, qHTS and NCGC
In the case of `Cc1ccccc1-c1ccc(C=Nc2c(C)n(C)n(-c3ccccc3)c2=O)o1`, the “activity change, positive = activation” value was inactive: -34.1%. Consider `CCc1nnc(NC(=O)CCC(=O)N2CCN(Cc3ccc(Cl)cc3)CC2)s1`, for which the activity change, positive = activation was -49%.

Turning to `O=C(C1CCC(CNc2nc(=S)[nH]c3ccccc23)CC1)N1CCN(c2ccc(F)cc2)CC1` (stereo unspecified), the activity change, positive = activation was -48.8%.

`CC1CC2(CC(C)(C(=O)CSc3n[nH]c(-c4ccccc4Cl)n3)OC2=O)C(=O)O1` (stereo unspecified): the activity change, positive = activation worked out at 77.2%. Same read-out and setting: under `Cc1ccc(-n2c(SCc3cn4ccsc4n3)nc3ccccc3c2=O)cc1` stands 47.3%. On to `COCc1nc(-c2ccc(-c3ccccc3)nc2OC)no1`, for which the Potency is active: 22.4 µM. Consider `CC1CN(S(=O)(=O)c2cccc(C(=O)Nc3ccc4c(c3)CCC4)c2)CC(C)O1` (stereo unspecified), for which the activity change, positive = activation is -60.3%. The same measure, in the same setting: the value for `O=C(O)c1ccc(/C=N/NC(=O)C2CC2(c2ccccc2)c2ccccc2)cc1` (stereo unspecified) was 40.1%; that for `COc1ccc(NC(C)C(=O)N/N=C/c2ccc([N+](=O)[O-])s2)cc1` (stereo unspecified) was inactive: -60.5%. On the same count and under the same terms, the value for `O=C(N/N=C/c1ccc(O)cc1O)c1ccc(CN2C(=O)c3cccc4cccc2c34)cc1` was inactive: -81.4%; that for `CCn1c(=O)cc(SCC(=O)NCc2ccc(C)cc2)c2ccccc21` was 22.6%. As for `Cc1cc2nc(-c3ccc(SCc4ccccc4C#N)nc3)[nH]c2cc1C`, the Potency was active: 11.2 µM. `CN(C)N1C(N)=C(C#N)C(c2cccs2)C2=C1CC(C)(C)CC2=O` (stereo unspecified): the “activity change, positive = activation” value is inactive: -51.7%.

For the compound `Cc1cc(C)c(C#N)c(SCc2nnc(-c3ccccc3[N+](=O)[O-])o2)n1`, the Potency was active: 1.12 µM.

As to `Cc1cccc(S(=O)(=O)Nc2ccc(-c3nc4ccc(C)cc4s3)cc2)c1`, the Potency is active: 11.2 µM. For the compound `COc1ccc(Cn2c3nc4ccccc4nc3c3c(=O)n(Cc4ccco4)c(C)nc32)cc1`, the activity change, positive = activation stood at 35.3%. `Cc1occc1C(=O)Nc1cccc2ccccc12`: the Potency was active: 3.16 µM. For `COc1cc2[nH]c(=S)n(C3CCCC3)c(=O)c2cc1OC`, the activity change, positive = activation came out at 59.8%. For `Cc1ccc(C(=O)N2c3ccccc3CC2C)o1` (stereo unspecified), the Potency is active: 15.8 µM. As to `CCC(=O)c1ccc(N2CCN(C(=O)c3ccc(Br)cc3)CC2)c(F)c1`, the activity change, positive = activation was -49.2%. In the case of `CCOCC(=O)Nc1nc2c(s1)C(=O)CC(C)(C)C2`, the activity change, positive = activation was 32%. With `CN(C(=O)CSc1nnc(Nc2ccccc2)s1)c1c(N)n(Cc2ccccc2)c(=O)[nH]c1=O`, the activity change, positive = activation was found to be 29%. As to `CCN(CC(=O)Nc1cc(C)c(Cl)cc1OC)CC(=O)NC1CCS(=O)(=O)C1` (stereo unspecified), the activity change, positive = activation stood at 35%.

For the compound `Cc1nc2scc(C)n2c(=O)c1S(=O)(=O)NCc1ccccc1Cl`, the activity change, positive = activation came to 40.1%.

As for `O=C(Nc1c(C(=O)N2CCOCC2)cnn1-c1ccccc1Cl)c1ccco1`, the activity change, positive = activation was found to be 32.8%. `O=C(Nc1cnccn1)Nc1ccc(Cl)cc1Cl`: the activity change, positive = activation was 57.8%. Consider `COc1cccc(N=Nc2c(N)[nH][nH]c2=O)c1`, for which the Potency was active: 10 µM. For `COC(=O)COc1cc(OCC(=O)OC)c2c(C)c(Cl)c(=O)oc2c1`, the activity change, positive = activation was found to be 33.9%. As for `Cc1ccc(NC(=O)N2N=C(c3ccc(F)cc3)CC2c2ccc(F)cc2)cc1` (stereo unspecified), the activity change, positive = activation was found to be 4.7%. For `CCOC(=O)/C(=N\Nc1ccccc1Cl)N(C)C1CCS(=O)(=O)C1` (stereo unspecified), the activity change, positive = activation was found to be 26.3%. For `O=C1c2cccc(OCC(=O)N3CCCc4ccccc43)c2CCN1Cc1ccc(F)cc1`, the “activity change, positive = activation” value was inactive: -87%. For the compound `COC(=O)c1cc(CSc2nc3ccccc3[nH]2)oc1C`, the “activity change, positive = activation” value is inactive: -44.9%. As for `COc1ccc(C(=O)/C=C(\C)NCc2ccc3c(c2)OCO3)cc1`, the activity change, positive = activation came to 30.3%. Consider `c1ccc(-n2ncc3c2ncn2nc(-c4ccco4)nc32)cc1`, for which the Potency is active: 11.2 µM. In the case of `O=C(c1ccc(F)cc1)c1ccc(N2CCCC2)cc1`, the activity change, positive = activation came to 98.6%.

In the case of `COc1cc(C2C=C(Nc3ccccc3)C(=O)N2c2ccccc2)ccc1O` (stereo unspecified), the activity change, positive = activation is -94.5%.

Take `Clc1cccc(-c2nnc(-c3ccccc3)o2)c1`: the Potency is active: 12.6 µM.

For `CNc1nnc(-c2ccc(N(C)C)cc2)s1`, the Potency was active: 2.82 µM. For the compound `CCOCc1nnc(NC(=O)c2ccc(OC)cc2)s1`, the Potency is active: 17.8 µM. Still for that read-out and setting: the value for `COCCNC(=O)c1cc2sc3ccccc3c2s1` was active: 14.1 µM. For the compound `Clc1ccc(SCCn2cncn2)cc1`, the activity change, positive = activation was found to be 34.3%. Still for that read-out and setting: under `Clc1ccc(CCNC(c2nnc(-c3ccccc3)o2)c2ccccc2Cl)cc1` (stereo unspecified) stands 33.2%; under `CN1/C(=C\C(=O)c2ccccc2Cl)c2ccccc2CC1(C)C`, 49.7% [at 1.84 µM].

Consider `CCOC(=O)C1(C(=O)O)NC(=O)CC1c1ccccc1` (stereo unspecified), for which the “activity change, positive = activation” value is inactive: -14.1%.

Regarding `Cc1cc(C(=O)Nc2sc(C)c(C)c2C#N)no1`, the activity change, positive = activation was determined as 88.1%. Consider `COc1cccc(NC(=O)Cn2cc(C#N)c3ccccc32)c1`, for which the activity change, positive = activation is -33.2%. As for `Cn1nnnc1SCCNCc1ccc(OCc2ccc(Cl)cc2)cc1`, the “activity change, positive = activation” value was inactive: -55.1%. As for `O=C(CN1C(=O)NC2(CCCCCC2)C1=O)c1ccc2c(c1)OCCO2`, the Potency is active: 17.8 µM. Consider `CCCCNC(=O)C1CCC(CNc2nc(=S)[nH]c3ccccc23)CC1` (stereo unspecified), for which the activity change, positive = activation is -30.7%. Still for that read-out and setting: the value for `CCOC(=O)C1CCCN(C(=O)c2cnn3c(C(F)F)cc(-c4ccc(C)cc4)nc23)C1` (stereo unspecified) was 33.2%; that for `Cc1ccc(S(=O)(=O)Oc2ccc(N3C(=O)C4C5CCC(C5)C4C3=O)cc2)cc1` (stereo unspecified) was inactive: -48.4%.

For `CC(=NCC1CCCO1)C1=C(O)CC(C)(C)CC1=O` (stereo unspecified), the activity change, positive = activation came to 37.6%. The same measure, in the same setting: under `CCn1cnc2c1c(=O)n(Cc1nnc3n1-c1ccccc1SC3)c(=O)n2Cc1ccccc1` stands 48%; under `O=C(c1ccc(CS(=O)(=O)c2c(Cl)cccc2Cl)o1)N1CCN(c2ccccc2)CC1`, inactive: -41.4%.

Take `Cc1ccc2nc(NC(=O)C3CCN(S(=O)(=O)c4cccnc4)CC3)sc2c1`: the “activity change, positive = activation” value was inactive: -32.2%. Consider `CCN(CC)S(=O)(=O)c1ccc2oc(C(=O)NCc3ccccc3OC)c(C)c2c1`, for which the “activity change, positive = activation” value was inactive: -39.5%. As for `O=C(CCSc1nnc2scc(-c3ccccc3)n12)NCc1ccc2c(c1)OCO2`, the activity change, positive = activation is 37.2%. On the same count and under the same terms, the value for `COc1ccc(C(C#N)Nc2ccccc2)cc1` (stereo unspecified) was -47.1%; that for `Cc1cc(C(F)(F)F)c(C#N)c(SCC(=O)NC(C)(C)C)n1` was 37.9%. On the same count and under the same terms, the value for `O=[N+]([O-])c1ccc(N2CCN(C(=S)NC3CCCCC3)CC2)cc1` was -39.6%; that for `O=C(CCc1nc2ccccc2[nH]1)N1CCN(C(=O)c2ccco2)CC1` was 11.8%; that for `CC1CCC(C(C)C)C(OP(=O)(c2ccccc2)C(O)c2ccncc2)C1` (stereo unspecified) was -54.2%. With `Cc1ccccc1NC(=S)N=Nc1c(O)n(C)c2ccc(S(=O)(=O)N3CCOCC3)cc12`, the activity change, positive = activation was -33.5%. On the same count and under the same terms, under `CCOc1ccc(NC(=S)NC(=O)/C=C/c2ccc(C)cc2)c([N+](=O)[O-])c1` stands -55.8%. As for `C=CC[n+]1ccc(/C=C2\C=Cc3cc(C)ccc3N2CC)c2ccccc21`, the “activity change, positive = activation” value is inactive: -98.3%. The same measure, in the same setting: the value for `O=C(CC(=O)c1ccccc1O)c1ccc(F)cc1` was inactive: -47.1%.
